Drawing on article PMC3176765, “Mechanism of the Interaction between the Intrinsically Disordered C-Terminus of the Pro-Apoptotic ARTS Protein and the Bir3 Domain of XIAP” (PLoS ONE, 2011), this text covers binding for two molecules.

The chains behind the UniProt entries cited, without tags or fusion partners. Residues count along the entry.
UniProt P98170, residues 252-350: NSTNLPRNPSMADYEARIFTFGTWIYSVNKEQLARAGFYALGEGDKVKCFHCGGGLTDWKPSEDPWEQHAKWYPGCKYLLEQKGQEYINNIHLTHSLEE

Results are given in words; binding and its absence hold for the method and conditions named.

One assay concerns the target T1, fl-ARTS 248-274 (human).
T1 sequence (peptide, 5' and 6' carboxyfluorescein on the N-terminus): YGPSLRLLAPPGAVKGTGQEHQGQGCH
As to the kind of experiment: fluorescence polarisation; Bir3 titrated into fl-ARTS CTD in the presence of 2 mM DTT; 20 mM Hepes pH 7.4, 45 mM NaCl, 10°C; both purified. On the technique in general: Polarisation of emitted light reports the rotation of a fluorescent probe.

In assay [1] the target is T2, fl-ARTS 266-274 C273A (human).
T2 sequence (peptide, 5' and 6' carboxyfluorescein on the N-terminus): QEHQGQGAH
As to the kind of experiment: condition: Bir3 150 µM stock, 200 µl titrated into 1 ml of peptide; fluorescence polarisation; non-labeled Bir3 (200 µl, 150 µM) titrated in 5 µl additions into 1 ml of fluorescein-labeled peptide; 20 mM Hepes pH 7.4, 45 mM NaCl, 10°C; fit to 1:1 binding model; both purified.

Another assay has as its target T3, fl-ARTS 257-265 (human).
T3 sequence (peptide, 5' and 6' carboxyfluorescein on the N-terminus): PPGAVKGTG
The description is as above.

Another assay deals with T4, fl-ARTS 248-256 (human).
T4 sequence (peptide, 5' and 6' carboxyfluorescein on the N-terminus): YGPSLRLLA
Described as above.

For assay [2], the target named is T5, fl-ARTS 266-274 H268A (human).
T5 sequence (peptide, 5' and 6' carboxyfluorescein on the N-terminus): QEAQGQGCH
Described as above.

Assay [3] deals with ARTS CTD 248-274 (not labelled) (human). The experiment in a line: SEC; analytical gel filtration of ARTS CTD 248-274 in the presence of 2 mM DTT; 20 mM Hepes pH 7.4, 50 mM NaCl, 4°C; peak identified by mass spectrometry; both purified.

As for “Bir3 domain of XIAP (residues 252-350) with a C-terminal His tag (from UniProt P98170 252-350) (domain or fragment)”, the binding entry is reported as “no binding (condition: with 2 mM DTT)” with fl-ARTS 248-274 (human); “no binding” in assay [1]; “no binding” in the assay with fl-ARTS 257-265 (human); “no binding” in the assay with fl-ARTS 248-256 (human); “no binding” in assay [2].

B1: ARTS CTD 248-274 (not labelled) (peptide)
peptide: YGPSLRLLAPPGAVKGTGQEHQGQGCH
notes: numbers count on: ARTS/Sept4_i2 (GenBank AAG45673.1); also called ARTS C-terminal domain; source: synthetic peptide
Take B1: in assay [3], the binding entry is recorded as “no binding (condition: with 2 mM DTT)”.
